Measured values as given in patent publication US20210324061A1 (ARGENX BVBA, published 2021).
Results are given in words; binding and its absence hold for the method and conditions named. Some results given as binding are weak or reduced against the parent protein; the word gives no strength.

By UniProt entry, the sequences of proteins in these tests, tags left out. Where a name states a change or a piece, a line headed by the entry shows the natural chain unless it says otherwise.
UniProt Q14392: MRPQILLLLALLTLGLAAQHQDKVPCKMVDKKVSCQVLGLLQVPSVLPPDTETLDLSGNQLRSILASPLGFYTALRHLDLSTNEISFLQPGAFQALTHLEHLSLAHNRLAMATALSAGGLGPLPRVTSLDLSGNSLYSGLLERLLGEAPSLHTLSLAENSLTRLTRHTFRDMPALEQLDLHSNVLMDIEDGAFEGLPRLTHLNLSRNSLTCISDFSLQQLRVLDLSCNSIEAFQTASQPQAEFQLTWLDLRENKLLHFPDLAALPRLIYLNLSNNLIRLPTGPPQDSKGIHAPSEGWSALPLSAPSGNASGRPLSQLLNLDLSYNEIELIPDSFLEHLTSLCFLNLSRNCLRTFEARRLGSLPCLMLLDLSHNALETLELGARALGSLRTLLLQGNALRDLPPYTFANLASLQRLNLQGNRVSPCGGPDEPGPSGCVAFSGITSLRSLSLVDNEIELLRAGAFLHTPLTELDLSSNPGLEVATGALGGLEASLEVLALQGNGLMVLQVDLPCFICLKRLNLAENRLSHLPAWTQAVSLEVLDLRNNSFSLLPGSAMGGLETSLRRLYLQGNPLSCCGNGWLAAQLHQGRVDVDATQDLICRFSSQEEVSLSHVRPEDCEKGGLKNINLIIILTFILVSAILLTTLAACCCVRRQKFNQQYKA
UniProt P01137: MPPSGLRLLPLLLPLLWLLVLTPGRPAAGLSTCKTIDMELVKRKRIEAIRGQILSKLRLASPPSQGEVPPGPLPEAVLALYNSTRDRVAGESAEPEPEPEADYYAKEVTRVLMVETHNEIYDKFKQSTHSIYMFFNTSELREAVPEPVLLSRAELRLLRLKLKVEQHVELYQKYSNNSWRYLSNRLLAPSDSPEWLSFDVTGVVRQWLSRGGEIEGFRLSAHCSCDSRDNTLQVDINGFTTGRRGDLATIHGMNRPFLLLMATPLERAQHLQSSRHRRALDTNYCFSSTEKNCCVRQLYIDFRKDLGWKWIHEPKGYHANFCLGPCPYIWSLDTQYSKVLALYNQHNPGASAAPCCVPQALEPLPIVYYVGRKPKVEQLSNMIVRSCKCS

Target: recombinant human GARP (human) (UniProt Q14392)
Assay: ELISA: GARP coated at 1 µg/mL, LAP at 5 µg/mL captured, anti-LAP-HRP

binding: binds
Substance: recombinant latency associated peptide (LAP) of TGF-β (from UniProt P01137 30-278)
